In PubChem BioAssay (EPA / NIEHS):
Several values for one entry are separate records, joined by “and”; a condition that tells them apart may be missing. Equal values may be shown once. Inconclusive results, whose numbers are uncertain, are shown with a selection of clear calls. Potencies of inconclusive entries are doubtful fits and often do not repeat. Activity calls are given as the source filed them. Rule for the calls: active = hit-call score of the fitted dose curve at least 0.9, where 1 is the maximum; inconclusive = response in the unintended direction; inactive = score below 0.9.

experiment: CLD_ACTIN_6hr: CellzDirect (CLD) Gene Expression Assay for Baseline Control (Actin) at 6 hours (AID 2283676);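 for outcome: active means increased actin mRNA relative to DMSO vehicle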
Protocol: CLD_6hr is a cell-based, multiplexed-readout assay that uses hepatocyte, a human liver primary cell, with measurements taken at 6 hours after chemical dosing in a 96-well plate.CLD_ACTIN_6hr is one of 16 assay component(s) measured or calculated from the CLD_6hr assay. It is designed to make measurements of mRNA induction, a form of inducible reporter, as detected with chemiluminescence signals by Quantitative Nuclease Protection Assay (qNPA) technology.Data from the assay component CLD_ACTIN_6hr was analyzed at the endpoint, CLD_ACTIN_6hr, in the positive analysis fitting direction relative to DMSO as the negative control and baseline of activity. Using a type of inducible reporter, gain-of-signal activity can be used to understand changes in the reporter gene as they relate to the gene ACTA1. Furthermore, this assay endpoint can be referred to as a secondary readout, because this assay has produced multiple assay endpoints where this one serves a background control function. To generalize the intended target to other relatable targets, this assay endpoint is annotated to the background measurement intended target family, where subfamily is baseline control.
Human hepatocyte cultures were treated daily for two consecutive days with fresh dosing solutions containing appropriate concentrations of the 320 ToxCast chemicals (chemical identities were blinded to CellzDirect and other ToxCast collaborators), vehicle control (0.2% DMSO), and positive control inducers as summarized in Table 1. Due to the large number of treatment groups and chemicals examined, the ToxCast chemicals were divided into two groups (spanning two independent cultures of hepatocytes from separate donor preparations (Hu778: ToxCast plates 1 and 2; Hu776: ToxCast plates 3 and 4). Each preparation of human hepatocyte cultures was treated with respective vehicle control, medium only control, set of six positive controls/reference chemicals for the five hepatic receptor pathways, and a subset of eight of the ToxCast chemicals (indoxacarb, pyrithiobac-sodium, norflurazon, cyhalofop-butyl, methomyl, thiram, acetochlor, and propiconazole). These replicate data, coupled with internal replicates designed within the blinded ToxCast chemical library, provided additional data to evaluate interindividual differences between hepatocyte preparations and their potential impact on chemical profiles.Cell morphology and integrity were evaluated using phase-contrast microscopy as an indicator of hepatocyte cell health (Tyson & Green, 1987). Cultures for each treatment group (i.e., media, vehicle [0.2% DMSO], positive control inducers [multiple concentrations], and the ToxCast chemicals [multiple concentrations]) were observed and cell morphology was assessed relative to vehicle control cultures at each harvest time point (0, 6, 24, or 48 h). […] Images were evaluated at the conclusion of the study to assess changes in cell integrity and account for the effects of chemical exposure on uncharacteristic changes in concentration-dependent gene expression profiles. The results from these determinations of apparent cytotoxicity were annotated (yes/no) alongside the corresponding qNPA data for reference.At the conclusion of each treatment period, hepatocyte cultures (96-well) were washed with 1 volume of HBSS, lysed by addition of 25 ul ArrayPlate lysis buffer (HTG, Tucson, AZ), and 70 ul/well of Denaturation Oil, denatured by incubation at 95C for 10 min, and frozen at approximately -70C until analysis by nuclease protection assay (qNPA) (Roberts et al., 2007). For qNPA analysis, cell lysates were thawed at 50C for approximately 30 min, qNPA probes were added, and samples were incubated at 95C for 10 min to begin the detection process by denaturing the target RNA, dissociating the duplexes and secondary structure hybridization. At the conclusion of the hybridization period, S1 nuclease reagent was added to each sample to digest all nonprotected nucleotides at 50C for 60-90 min. […]

Question: For CCN(CC)C(=O)C(C)Oc1cccc2ccccc12 (stereo not given), which AC50 is on record?
Answer: The AC50 was inconclusive: 3.97 µM.

Question: For C=CCOC(=O)C(C)(C)OC(=O)c1cc(-n2c(=O)cc(C(F)(F)F)n(C)c2=O)ccc1Cl, which AC50 is on record?
Answer: The AC50 was inconclusive: 20 µM.

Question: Which outcome does the source give for CCOP(=S)(Oc1cnc(C(C)(C)C)nc1)OC(C)C (stereo not given) here?
Answer: The outcome was “inactive”.

Question: Which AC50 does the source give for Nc1c(Cl)c(F)nc(OCC(=O)O)c1Cl here?
Answer: Its AC50 is inconclusive: 20 µM.

Question: With OC(c1ccc(Cl)cc1)(c1ccc(Cl)cc1)C(Cl)(Cl)Cl as the molecule, how does the AC50 read?
Answer: Its AC50 is inconclusive: 20 µM.

Question: With N#Cc1nn(-c2c(Cl)cc(C(F)(F)F)cc2Cl)c(N)c1S(=O)C(F)(F)F (stereo not given) as the molecule, how does the AC50 read?
Answer: The AC50 was inconclusive: 20 µM.

Question: For CCc1cnc(C2=NC(C)(C(C)C)C(=O)N2)c(C(=O)O)c1 (stereo not given), which outcome is on record?
Answer: Its outcome is “inactive”.

Question: Which AC50 does the source give for COc1nc(C)nc(NC(=O)NS(=O)(=O)c2ccccc2CCC(F)(F)F)n1 here?
Answer: The AC50 was inconclusive: 20 µM.

Question: What about the outcome of the same molecule?
Answer: Its outcome is “inactive”.

Question: Which AC50 does the source give for COc1nn(CSP(=S)(OC)OC)c(=O)s1 here?
Answer: Its AC50 is inconclusive: 20 µM.

Question: For Oc1ccccc1-c1ccccc1, which AC50 is on record?
Answer: Its AC50 is inconclusive: 20 µM.

Question: With CON(C)C(=O)Nc1ccc(Cl)c(Cl)c1 as the molecule, how does the AC50 read?
Answer: The AC50 was inconclusive: 2.7 µM.

Question: With N#Cc1c(Cl)c(Cl)c(Cl)c(C#N)c1Cl as the molecule, how does the AC50 read?
Answer: The AC50 was inconclusive: 20 µM.

Question: Which outcome does the source give for O=C(O)CCCOc1ccc(Cl)cc1Cl here?
Answer: The outcome was “inactive”.

Question: Which AC50 does the source give for Cc1c(COC(=O)[C@@H]2[C@H](/C=C(\Cl)C(F)(F)F)C2(C)C)cccc1-c1ccccc1 here?
Answer: Its AC50 is inconclusive: 20 µM.

Question: With COP(=O)(OC)SCn1c(=O)oc2cc(Cl)cnc21 as the molecule, how does the AC50 read?
Answer: The AC50 was inconclusive: 20 µM.

Question: For CCOP(=O)(OCC)Oc1nc(Cl)c(Cl)cc1Cl, which outcome is on record?
Answer: Its outcome is “inactive”.

Question: Which AC50 does the source give for CSc1nc(NC(C)C)nc(NC(C)C)n1 here?
Answer: Its AC50 is inconclusive: 20 µM.

Question: For Cc1[nH]c(=O)n(C(C)(C)C)c(=O)c1Cl, which AC50 is on record?
Answer: Its AC50 is inconclusive: 20 µM.

Question: For CC(C)Oc1cccc(NC(=O)c2ccccc2C(F)(F)F)c1, which AC50 is on record?
Answer: The AC50 was inconclusive: 20 µM.

Question: With COP(=O)(OC)OC(Br)C(Cl)(Cl)Br (stereo not given) as the molecule, how does the AC50 read?
Answer: The AC50 was inconclusive: 20 µM.

Question: Which AC50 does the source give for CCOc1nc(NC)nc(NC(=O)NS(=O)(=O)c2ccccc2C(=O)OC)n1 here?
Answer: The AC50 was inconclusive: 3.97 µM.

Question: For O=C(O)COc1nc(Cl)c(Cl)cc1Cl, which AC50 is on record?
Answer: Its AC50 is inconclusive: 1.9 µM.

Question: For C=CC1(C)OC(=O)N(c2cc(Cl)cc(Cl)c2)C1=O (stereo not given), which outcome is on record?
Answer: Its outcome is “inactive”.

Question: For CCCN(CCOc1c(Cl)cc(Cl)cc1Cl)C(=O)n1ccnc1, which outcome is on record?
Answer: Its outcome is “inactive”.

Question: Which outcome does the source give for CNC(=O)Oc1cccc2ccccc12 here?
Answer: The outcome was “inactive”.

Question: With CC(C)(C)C(=O)C(Oc1ccc(Cl)cc1)n1cncn1 (stereo not given) as the molecule, how does the AC50 read?
Answer: Its AC50 is inconclusive: 20 µM.

Question: Which outcome does the source give for CCc1nn(C)c(C(=O)NCc2ccc(C(C)(C)C)cc2)c1Cl here?
Answer: The outcome was “inactive”.

Question: For CNC(=O)N(C)c1nnc(C(C)(C)C)s1, which outcome is on record?
Answer: Its outcome is “inactive”.

Question: For Cc1ccn2nc(S(=O)(=O)Nc3c(F)cccc3F)nc2n1, which AC50 is on record?
Answer: Its AC50 is inconclusive: 3.97 µM.

Question: For Oc1cc(Cl)ccc1Oc1ccc(Cl)cc1Cl, which AC50 is on record?
Answer: The AC50 was inconclusive: 1.99 µM.

Question: With CCN(CC)c1nc(C)cc(OP(=S)(OC)OC)n1 as the molecule, how does the AC50 read?
Answer: The AC50 was inconclusive: 20 µM.

Question: With CCCCOC(=O)[C@@H](C)Oc1ccc(Oc2ccc(C#N)cc2F)cc1 as the molecule, how does the outcome read?
Answer: Its outcome is “inactive”.

Question: Which AC50 does the source give for CCCCNC(=O)OCC#CI here?
Answer: The AC50 was inconclusive: 335 nM and inconclusive: 20 µM.

Question: With CNC(=S)S as the molecule, how does the AC50 read?
Answer: The AC50 was inconclusive: 20 µM.

Question: For CNC(=O)ON=C(SC)C(=O)N(C)C, which outcome is on record?
Answer: Its outcome is “inactive”.

Question: For COP(=S)(OC)Oc1ccc(SC)c(C)c1, which AC50 is on record?
Answer: The AC50 was inconclusive: 20 µM.

Question: Which AC50 does the source give for CC1(C(=O)Nc2ccc(O)c(Cl)c2Cl)CCCCC1 here?
Answer: The AC50 was inconclusive: 20 µM.

Question: Which AC50 does the source give for CCCCOC(=O)c1ccccc1C(=O)OCCCC here?
Answer: The AC50 was inconclusive: 20 µM.

Question: For CC1(C)C(C=C(Cl)Cl)C1C(=O)OC(C#N)c1ccc(F)c(Oc2ccccc2)c1 (stereo not given), which AC50 is on record?
Answer: Its AC50 is inconclusive: 20 µM.
